Assay results published in patent US20250288584A1, “COMBINATIONS COMPRISING POSITIVE ALLOSTERIC MODULATORS OR ORTHOSTERIC AGONISTS OF METABOTROPIC GLUTAMATERGIC RECEPTOR SUBTYPE 2 AND THEIR USE” (JANSSEN PHARMACEUTICA NV, priority 2014, published 2025).

System: 6 Hz (32 mA) psychomotor seizures
Assay: 6 Hz psychomotor seizure test, 32 mA (incl. TPE determination)
Type: in vivo, mice
Conditions: time of peak effect determined in 32 mA 6 Hz test
Experimental: Test compounds were administered using an optimal fluid volume to body fluid ratio. Test compounds were administered to mice in a volume of 0.01 mL/g of body weight (White H. S., et al., General Principles: Experimental selection, quantification, and evaluation of antiepileptic drugs, in Antiepileptic Drugs, Fourth Edition, […], and B. S. Meldrum, Editors. 1995, Raven Press, Ltd.: New York, pp. 99-110). For subcutaneous (s.c.) administration, the test compounds were administered into a loose fold of skin along the back of the animal except compound 6-b, which was administered orally (p.o). […] The animals were maintained on an adequate diet (Prolab RMH 3000) and allowed free access to food and water, except during the short time they were removed from their cage for testing. Animals newly received in the laboratory were allowed sufficient time to correct for possible food and water restriction incurred during transit before being employed in testing. All mice were housed in plastic cages in specially constructed rooms with controlled humidity, exchange of air and controlled lighting (12 hours on-12 hours off). The animals were housed, fed, and handled in a manner consistent with the recommendations in the National Council Publication, “Guide for the Care and Use of Laboratory Animals”. In the determination of an ED50 or TD50 for each test compound, the first dose administered is usually the same dose as that used in a successful TPE determination. […] Third and fourth doses were selected to produce an evenly spaced dose response line. […] TPE was determined using the 6 Hz (32 mA) assay. […] The 6 Hz seizure test is used as a model of pharmacoresistant limbic seizures. […] Focal seizures were induced in mice via corneal stimulation (6 Hz, 0.2 msec rectangular pulse, 3 sec duration; Barton et al. 2001). Mice were tested at either 32 mA or 44 mA. […] The seizures that arise from corneal stimulation in this assay are characterized by a minimal clonic phase followed by stereotyped automatistic behaviors including stun, forelimb clonus, twitching of the vibrissae, and Straub-tail. Animals not displaying these behaviors were considered protected.

Fc1ccc(N2CCN(Cc3ccn4c(CC5CC5)nnc4c3C(F)(F)F)CC2)c(F)c1 [Co. No. 1]
TPE (h) (s.c.): previously determined to be 0.5 h (results shown above in table
TPE (s.c., listed as 1): 0.5 h

CCCCn1ccc(N2CCC(c3ccccc3)CC2)c(Cl)c1=O [Co. No. 2-a]
TPE (h) (s.c.): A time-to-peak effect of 0.5 h was determined in the 32 mA 6 Hz test (s.c.) and used for 6 Hz (32 mA and 44 mA) studies.
TPE (s.c., listed as 2-a): 0.5 h

FC(F)(F)c1c(N2CCC(c3ccccc3)CC2)ccn2c(CC3CC3)nnc12 [Co. No. 2]
TPE (s.c.): 0.25 h

C[C@H](Oc1ccc(F)cc1F)c1ccn2c(CC3CC3)nnc2c1C(F)(F)F [Co. No. 6-b, 3-(Cyclopropylmethyl)-7-[(1S)-1-(2,4-difluorophenoxy)ethyl]-8-(trifluoromethyl)[1,2,4]triazolo[4,3-a]pyridine]
TPE (h) (p.o.): TPE determined to be 0.5 h.
TPE (p.o., listed as 6-b): 0.5 h

FC(F)(F)Cc1nnc2c(Cl)c(N3CCC(F)(c4ccccc4)CC3)ccn12 [Co. No. 11]
TPE (s.c.): 0.5 h

CCCCn1ccc(N2CCC(c3ccc(F)cc3F)CC2)c(Cl)c1=O [Co. No. 25-a]
TPE (h) (s.c.): ^aThe time-to-peak effect in the 6 Hz 32 mA assay for Co. No. 25-a was determined to be 0.25 h (see Table 1).
TPE (s.c., listed as 25-a): 1 h

N[C@@]1(C(=O)O)CS(=O)(=O)[C@H]2[C@H](C(=O)O)[C@H]21 [LY-404039, reference compound]
TPE (s.c.): 0.5 h
TPE (h) (s.c., listed as LY404039): A time-to-peak effect of 0.5 h was determined in the 32 mA 6 Hz test (s.c.) and used for 6 Hz (32 mA and 44 mA) studies.
